Data as given in patent publication US20160318844A1, “PROSTACYCLIN COMPOUNDS, COMPOSITIONS AND METHODS OF USE THEREOF” (Insmed Incorporated, priority 2015, published 2016).
Some entries share one result that the patent states for a list of compounds. At least one compound was matched to its structure with a doubt left.

Assay: Particle size characterization of treprostinil compositions (QELS)
Type: physicochemical
Conditions: compositions of Table 3, FIG. 2

SMILES | polydispersity (% PD)
CCCCCCCCCCCCCCCCCCOC(=O)COc1cccc2c1C[C@H]1C[C@@H](O)[C@H](CC[C@@H](O)CCCCC)[C@H]1C2 [Compound C18-TR] | greater than 15 % PD
CCCCC[C@H](O)CC[C@@H]1[C@H]2Cc3cccc(OCC(=O)OCCC)c3C[C@H]2C[C@H]1O [Compound C3-TR] | greater than 15 % PD
